About 7,700 (2.3%) of roughly 330,000 compounds were called active. Inconclusive means that the source gave no clear call. Such entries were picked first, then a sample of the others. The call rests on the fitted dose curve; in most records, active means well fitted inhibition curve with a large enough effect; inconclusive means small, poorly fitted or top-dose-only effect, or effect the other way; inactive means flat fitted curve, though single readings scatter. A potency beside an inconclusive call is a rough fit, not a confirmed value.
Experiment: qHTS screen for small molecules that inhibit ELG1-dependent DNA repair in human embryonic kidney (HEK293T) cells expressing luciferase-tagged ELG1; further: nearly all actives have a fitted effect of over 55% in size
Details: HEK293T ELG1-luciferase reporter, luminescence, 16 h, DNA damage induced by 5-fluorouridine; activity change, negative = inhibition: at 46.1 µM (top of the series)
How it was run: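 HEK293T cells expressing luciferase-tagged ELG1 (2,000/well) received 5-Fluorouridine plus compound or DMSO for 16 hr at 37 °C. Luciferase was read by ONE-Glo luminescence after 30 min at room temperature.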
In the case of `O=C(CSc1cccc2cccnc12)OCC(=O)c1ccccc1`, the Potency is reported as inconclusive: 32.6 µM [activator, partial curve, poor fit]. In the case of `CC(C)CNC(=S)NC(=O)c1ccc([N+](=O)[O-])cc1`, the Potency is reported as inconclusive: 18.4 µM [activator, single point]. With `CCNC(=O)N1c2ccc(OC)cc2C(C)=CC1(C)C` the Potency was “inactive”. In the case of `Cc1ccc(C)n1-c1nccc(-c2ccco2)n1`, the Potency is reported as inconclusive: 16.4 µM [activator, partial curve, poor fit]. For `Cc1cc2nccc(-c3ccco3)n2n1`, the Potency was inconclusive: 20.6 µM [inhibitor, partial curve]. For `CC(Sc1nc2ccccc2s1)C(=O)N1CCOCC1` (stereo not drawn), the Potency was inconclusive: 16.4 µM [activator, single point]. For `COc1ccc(C(=O)NC(=S)Nc2ccc(Cc3ccncc3)cc2)cc1`, the Potency was inconclusive: 23.1 µM [inhibitor, partial curve]. In the case of `N#C/C(=C\c1ccccc1)C(=O)Nc1cc(S(=O)(=O)N2CCOCC2)ccc1N1CCCC1`, the Potency is reported as inconclusive: 20.6 µM [activator, single point]. For `CC(=O)Nc1ccc(/C=C2/Sc3ccccc3C2=O)cc1`, the Potency was inconclusive: 29.1 µM [activator, single point]. With `O=C(COc1ccc(C(=O)NCC2CCCO2)cc1)Nc1cccc(C(F)(F)F)c1` (stereo not drawn) the Potency was active: 3.26 µM. With `Oc1ccc(N=Nc2n[nH]c(-c3ccc(Br)cc3)n2)cc1` the Potency was inconclusive: 13 µM [inhibitor, partial curve, poor fit]. In the case of `COc1ccc(/C=C/C(=O)Oc2cc(C)[nH]c(=O)c2[N+](=O)[O-])cc1OC`, the activity change, negative = inhibition is reported as inconclusive: 13.5% [activator]. With `Fc1ccc(CNCc2ccccc2C(F)(F)F)cc1` the Potency was “inactive”. For `O=C(CCNS(=O)(=O)c1ccc(Cl)cc1)NCc1cccs1`, the Potency was “inactive”. For `COc1ccc(C(=O)Nc2ccnn2C2CCN(CCC(C)c3ccc(C)o3)CC2)cc1` (stereo not drawn), the Potency was “inactive”. With `Cc1ccccc1C(=O)N1CCC(C(=O)Nc2ccc(F)cc2)CC1` the Potency was “inactive”. With `CC1C(O)=C(c2nc3ccccc3[nH]2)C(=N)N1c1ccccc1` (stereo not drawn) the Potency was inconclusive: 18.4 µM [activator, partial curve]. With `OCC1CCCN(c2nc(CN3CCCCC3)nc3scc(-c4ccccc4)c23)C1` (stereo not drawn) the Potency was “inactive”. In the case of `CCOC(=O)C[n+]1ccc2c([nH]c3ccccc32)c1C`, the Potency is reported as inconclusive: 14.1 µM [activator, single point]. With `COc1cccc(NC(=S)N(CCc2c(C)[nH]c3ccccc23)Cc2cccs2)c1` the Potency was inconclusive: 25.9 µM [inhibitor, partial curve]. For `COC(=O)Cn1c(O)c(N=NC(=O)CNC(=O)c2ccncc2)c2ccccc21`, the Potency was inconclusive: 32.6 µM [activator, partial curve, poor fit]. For `COCCCn1c(SCc2cccc(OC)c2)nc2cc(OC)c(OC)cc2c1=N`, the Potency was inconclusive: 22.4 µM [inhibitor, single point]. In the case of `COCc1nc2oc3ccc(F)cc3c(=O)c2cc1C(=O)OC`, the Potency is reported as inconclusive: 16.4 µM [activator, partial curve]. With `CNC(=O)c1nc(C)c(C2(C)CC(c3cccc([N+](=O)[O-])c3)=NO2)s1` (stereo not drawn) the Potency was “inactive”. For `Cc1ccsc1C(=O)OCC(=O)NC1CCCC(C)C1C` (stereo not drawn), the Potency was “inactive”. For `COC(=O)c1nc2cc(C)ccn2c1F`, the Potency was inconclusive: 20.6 µM [activator, single point]. For `O=C(NCc1ccccn1)c1cc(-c2ccc(Br)cc2)nc2ccccc12`, the Potency was inconclusive: 20.6 µM [inhibitor, partial curve, poor fit]. For `C=CCn1cc(C(=O)NCc2ccc3c(c2)OCO3)c(=O)c2cc(S(=O)(=O)N(CC)CC)ccc21`, the Potency was inconclusive: 6.51 µM [inhibitor, full curve]. In the case of `CCc1ccc(-c2cc(C)no2)cc1S(=O)(=O)N1CCOc2ccccc21`, the Potency is reported as inconclusive: 20.6 µM [inhibitor, single point]. In the case of `COc1cc(NC(=O)C(C)Oc2ccccc2)ccc1NC(=O)COc1ccccc1` (stereo not drawn), the Potency is reported as inconclusive: 29.1 µM [inhibitor, single point]. For `O=C(NCc1ccco1)c1ccc2c(=O)n(-c3ccccc3)c(=O)n(Cc3cccc(F)c3)c2c1`, the Potency was “inactive”. For `O=C(Nc1ccc(OCC(F)(F)C(F)F)c(C(F)(F)F)c1)c1ccccc1O`, the Potency was inconclusive: 7.31 µM [inhibitor, partial curve, poor fit]. For `COc1ccc(C2CC(=O)C3=C(C2)Nc2ccccc2NC3c2coc3ccccc3c2=O)cc1OC` (stereo not drawn), the Potency was inconclusive: 32.6 µM [inhibitor, partial curve, poor fit]. For `COc1ccccc1CNC(=O)c1cc(-c2ccncc2)nc2c(Cl)cccc12`, the Potency was inconclusive: 29.1 µM [inhibitor, single point]. In the case of `O=C(CSCc1nc2ccccc2[nH]1)N1CCN(c2cccc(Cl)c2)CC1`, the Potency is reported as inconclusive: 25.1 µM [inhibitor, single point]. In the case of `CCCC(=O)Nc1nc(-c2ccc3c(c2)CCN3S(C)(=O)=O)cs1`, the Potency is reported as inconclusive: 35.5 µM [inhibitor, single point]. With `Cc1c(C(=O)NCCSCc2ccc(Cl)cc2Cl)cccc1[N+](=O)[O-]` the Potency was inconclusive: 8.2 µM [inhibitor, single point]. With `CCn1nnnc1NCc1ccc(OCc2ccc(F)cc2Cl)c(OC)c1` the Potency was inconclusive: 16.4 µM [inhibitor, partial curve]. For `CCOc1ccc2nc(NCCCNC(=O)c3cc(OC)c(OC)c(OC)c3)c(C#N)cc2c1`, the Potency was active: 6.51 µM. In the case of `CCOc1cc(/C=N/NC(=O)c2cc(C)n(-c3ccc(F)cc3)c2C)ccc1O`, the Potency is reported as inconclusive: 9.2 µM [inhibitor, partial curve]. In the case of `Cc1nnc(NC(=O)CSc2nc3c(c(=O)n2CCc2ccccc2)SC(C)C3)s1` (stereo not drawn), the Potency is reported as “inactive”. In the case of `O=C(Nc1ccccc1)C1=C[C@H](C2CC2)C[C@H](OCCCCO)O1`, the Potency is reported as inconclusive: 16.4 µM [activator, single point]. For `COc1cccc(NC(=O)CN(C)C(=O)c2ccccc2CCc2ccccc2)c1`, the Potency was inconclusive: 25.9 µM [inhibitor, single point]. For `C/C(=N\NC(=S)Nc1ccc(C)c(C)c1)c1ccc(N2CCOCC2)cc1`, the Potency was active: 23.1 µM. With `Cc1cccc(OCC(O)Cn2c(=N)n(CCN3CCOCC3)c3ccccc32)c1` (stereo not drawn) the Potency was inconclusive: 3.55 µM [inhibitor, partial curve, poor fit]. With `Cc1ccc(/C(O)=C/C(=O)C(=O)NC23CC4CC(CC(C4)C2)C3)cc1` the Potency was inconclusive: 9.2 µM [inhibitor, partial curve]. In the case of `O=C(c1cccc(F)c1)N1CCN(c2cccc(C(F)(F)F)c2)CC1`, the Potency is reported as “inactive”. For `Cc1ccc(S(=O)(=O)Cn2nnnc2CN2CCN(Cc3ccc4c(c3)OCO4)CC2)cc1`, the Potency was inconclusive: 20.6 µM [inhibitor, single point]. In the case of `Cc1c(C(=O)O)cccc1-c1ccc(C=O)o1`, the Potency is reported as inconclusive: 16.4 µM [activator, partial curve]. In the case of `CC(C)(C)C(C(=O)O)N1CCS(=O)(=O)CC1` (stereo not drawn), the Potency is reported as inconclusive: 2.31 µM [activator, full curve, poor fit]. In the case of `Cc1noc(C)c1COc1ccc(C(=O)NCCc2ccccn2)cc1`, the Potency is reported as inconclusive: 18.3 µM [activator, single point]. For `Cc1ccccc1Nc1cccc2nonc12`, the Potency was “inactive”. For `CCCNC(=O)c1ccc(COc2cccc3ccccc23)o1`, the Potency was inconclusive: 29.1 µM [inhibitor, single point]. In the case of `CCOC(=O)c1ccc(NC(=S)NNC(=O)c2cc(-c3cccnc3)nc3ccccc23)cc1`, the Potency is reported as active: 14.6 µM. In the case of `Cc1c(C(=O)NCc2cccnc2)oc2ccc(S(=O)(=O)N3CCCCCC3)cc12`, the Potency is reported as active: 18.4 µM. For `Cc1csc(NC(=O)c2nc3nccc(C)n3n2)n1`, the Potency was inconclusive: 13 µM [activator, partial curve]. In the case of `CCCn1c(SCc2ccon2)nc2ccccc2c1=O`, the Potency is reported as “inactive”. In the case of `CCCNC(=S)Nc1ccc(Br)cc1`, the Potency is reported as inconclusive: 6.31 µM [activator, single point]. In the case of `COc1ccccc1OCC(=O)N/N=C1\CCCCc2ccccc21`, the Potency is reported as inconclusive: 18.3 µM [inhibitor, single point]. In the case of `COc1ccc2c(c1)O[C@@H](c1ccc3c(c1)OCO3)[C@H](OC(=O)Nc1cc(OC)c(OC)c(OC)c1)C2=O`, the Potency is reported as “inactive”. In the case of `C=CCn1c(=NC(=O)C2CC2)sc2cc(NC(C)=O)ccc21`, the Potency is reported as inconclusive: 16.4 µM [activator, partial curve]. For `Cn1nc([N+](=O)[O-])nc1Sc1cccc2cccnc12`, the Potency was inconclusive: 23.1 µM [inhibitor, single point]. With `Cc1ccc(-n2nnnc2Sc2nc([N+](=O)[O-])nn2C)cc1C` the Potency was inconclusive: 29.1 µM [inhibitor, single point]. For `O=C(c1ccccc1)c1cc2ccc(O)cc2oc1=O`, the Potency was inconclusive: 18.4 µM [activator, partial curve]. With `CCCCC(=O)Nc1ccc(C)c(S(=O)(=O)N2CCCCCC2)c1` the Potency was “inactive”. For `COc1ccc(CCN2C(=O)CSC2c2ccc(OC)c(OC)c2)cc1OC` (stereo not drawn), the Potency was inconclusive: 29.1 µM [inhibitor, single point]. In the case of `COC(=O)c1cnc(Oc2ccc(NC(=O)NC(=O)c3c(OC)cccc3OC)cc2)cc1C(F)(F)F`, the Potency is reported as inconclusive: 20.6 µM [inhibitor, single point]. With `O=C(c1cc2cc(Br)ccc2o1)N1CCN(c2ccccc2)CC1` the Potency was inconclusive: 20.6 µM [activator, partial curve].
On the % scale 0 is the no-effect control and ±100 the full control effect; potency means the concentration at half of the fitted maximal effect.
